Test results taken from patent US20070026079A1, “Intranasal administration of modulators of hypothalamic ATP-sensitive potassium channels” (priority 2005, published 2007).

What was measured:
[1] = tested on: hypothalamic KATP channels; assay: ICV infusion of insulin, KATP channel blocker (glibenclamide) or both with pancreatic-insulin clamp (1 mU/kg.min) in rats; assay type: in vivo, Sprague-Dawley rats; conditions: for FFA / Insulin: plasma; for Body wt.: measured at the beginning of the clamp; for 3H-Glucose Plasma SA / 3H-UDP-glucose Liver SA / Direct (%) / 14C-PEP / 14C-UDP glucose: Table 7; for Direct (%): direct pathway; for 14C-PEP / 14C-UDP glucose: liver
Text: (§1) Animal preparation for the in vivo experiments. Rats. Eighty-nine 10-week-old male Sprague-Dawley rats (Charles River Breeding Laboratories, Wilmington, Mass.) were studied. Rats were housed in individual cages and subjected to a standard light-dark cycle. Three weeks prior to the in vivo studies, chronic catheters were implanted in the third cerebral ventricle (Obici et al., 2003; Liu et al., 1998) or intrahypothalamically (Morton et al., 2003) (IH) by stereotaxic surgery.
In vivo studies. For the studies in rats, the metabolic experiments were performed ˜3 weeks after stereotaxic surgery following complete recovery from the operation (FIG. 5). All solutions were diluted with artificial cerebral spinal fluid (aCSF). […] Euglycemic-hyperinsulinemic clamps in conscious, unrestrained, catheterized mice were performed for 90 min as previously described (Obici et al., 2003; Liu et al., 1998).
(§2) Hepatic alucose fluxes. Rate of hepatic glucose fluxes was determined as described. Barzilai et al., 1997).

central KATP channels = assay: ICV infusion of diazoxide with pancreatic-insulin clamp (1 mU/kg.min) in conscious rats; assay type: in vivo, Sprague-Dawley rats
Text: as §1, with “surgery. One week before the pancreatic-insulin clamp protocols, rats received additional catheters in the right internal jugular and left carotid artery (FIG. 5) (Obici et al., 2003; Liu et al., 1998).” for “surgery.”
In vivo studies. For the studies in rats, the metabolic experiments were performed ˜3 weeks after stereotaxic surgery following complete recovery from the operation (FIG. 5). All solutions were diluted with artificial cerebral spinal fluid (aCSF). […] Pancreatic-insulin clamp studies were performed as previously described (Liu et al., 1998). Euglycemic-hyperinsulinemic clamps in conscious, unrestrained, catheterized mice were performed for 90 min as previously described (Obici et al., 2003; Liu et al., 1998).
as §2

Compound	FFA ([1]; Basal, before the clamp)	Body wt. ([1]; Basal)	FFA ([1]; Clamp steady state)	Insulin ([1]; Clamp steady state)	3H-Glucose Plasma SA [1]	3H-UDP-glucose Liver SA [1]	Direct (%) [1]	14C-PEP [1]	14C-UDP glucose [1]	FFA (central KATP channels; Basal, before the clamp, plasma)	Body wt. (central KATP channels; Basal, measured at the beginning of the clamp)	FFA (central KATP channels; Clamp steady state, plasma)	Insulin (central KATP channels; Clamp steady state, plasma)	3H-Glucose Plasma SA (central KATP channels; Table 6)	3H-UDPglucose Liver SA (central KATP channels; Table 6)	Direct (%) (central KATP channels; direct pathway, Table 6)	14C-PEP (central KATP channels; liver, Table 6)	14C-UDP glucose (central KATP channels; liver, Table 6)
COc1ccc(Cl)cc1C(=O)NCCc1ccc(S(=O)(=O)NC(=O)NC2CCCCC2)cc1 [glibenclamide, 5-Chloro-N-[2-[4-(3-cyclohexylureidosulfonyl)phenyl]ethyl]-2-methoxybenzamide, reference compound]	0.4 ± 0.1 mM	316 ± 8 g	0.6 ± 0.2 mM	1.2 ± 0.5 ng/mL	48.8 ± 3.9 dpm/nmol	8.7 ± 0.6 dpm/nmol	18.5 ± 2.8%	8.8 ± 2.4 dpm/nmol	5.3 ± 1.0 dpm/nmol									
CC1=NS(=O)(=O)c2cc(Cl)ccc2N1 [diazoxide]										0.4 ± 0.1 mM	306 ± 4 g	0.5 ± 0.1 mM	1.2 ± 0.4 ng/mL	46.0 ± 14.2 dpm/nmol	6.79 ± 1.6 dpm/nmol	14.37 ± 2.2%	11.60 ± 2.4 dpm/nmol	3.85 ± 0.3 dpm/nmol
insulin	0.5 ± 0.3 mM	300 ± 5 g	0.4 ± 0.1 mM	1.3 ± 0.2 ng/mL	43.1 ± 1.9 dpm/nmol	5.5 ± 0.5 dpm/nmol	12.1 ± 0.7%	10.9 ± 0.6 dpm/nmol	2.2 ± 0.1 dpm/nmol									
